Experimental data reported in PMC6744409.

Columns and labels:
[1] = target: T1, LptB from Shigella flexneri (subunit of sfLptB2FG / sfLptB2FGC) (Shigella flexneri) (UniProt P0A9V4); experiment: cryo-EM structure; sfLptB2FG, LPS-bound (LPS co-purified from E. coli), nucleotide-free, in LMNG, ~1 mg/ml; 3.7 Å overall; both purified
T1 sequence: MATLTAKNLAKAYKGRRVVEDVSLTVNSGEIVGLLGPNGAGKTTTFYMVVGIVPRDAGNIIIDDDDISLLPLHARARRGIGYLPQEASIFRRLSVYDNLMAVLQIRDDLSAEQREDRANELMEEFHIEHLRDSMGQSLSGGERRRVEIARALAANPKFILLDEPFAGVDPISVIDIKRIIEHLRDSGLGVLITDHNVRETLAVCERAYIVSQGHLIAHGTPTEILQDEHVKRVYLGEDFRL

[2] = target: T1, LptB from Shigella flexneri (subunit of sfLptB2FG / sfLptB2FGC) (Shigella flexneri); experiment: cryo-EM structure; purified sfLptB2FGC incubated with 5 mM AMP-PNP and 2 mM MgCl2 for 1 h at room temperature, in LMNG; both purified
[3] = target: T1, LptB from Shigella flexneri (subunit of sfLptB2FG / sfLptB2FGC) (Shigella flexneri); experiment: cryo-EM structure; sfLptB2FGC, LPS-bound, nucleotide-free, in LMNG, ~1 mg/ml; 3.1 Å; both purified
[4] = target: LptG from Shigella flexneri (subunit of sfLptB2FG / sfLptB2FGC) (Shigella flexneri); experiment: cryo-EM structure; sfLptB2FG, LPS-bound (LPS co-purified from E. coli), nucleotide-free, in LMNG, ~1 mg/ml; 3.7 Å overall; both purified
[5] = target: LptG from Shigella flexneri (subunit of sfLptB2FG / sfLptB2FGC) (Shigella flexneri); experiment: cryo-EM structure; sfLptB2FGC, LPS-bound, nucleotide-free, in LMNG, ~1 mg/ml; 3.1 Å; both purified
[6] = target: LptG from Shigella flexneri (subunit of sfLptB2FG / sfLptB2FGC) (Shigella flexneri); experiment: cryo-EM structure; purified sfLptB2FGC incubated with 5 mM AMP-PNP and 2 mM MgCl2 for 1 h at room temperature, in LMNG; both purified

Measured: binding

LptG from Shigella flexneri (subunit of sfLptB2FG / sfLptB2FGC)
binds: [1] | [2] | [3]

B1: LptF from Shigella flexneri (subunit of sfLptB2FG / sfLptB2FGC) (protein, UniProt P0AFA1 1-366)
chain: MIIIRYLVRETLKSQLAILFILLLIFFCQKLVRILGAAVDGDIPANLVLSLLGLGVPEMAQLILPLSLFLGLLMTLGKLYTESEITVMHACGLSKAVLVKAAMILAVFTAIVAAVNVMWAGPWSSRHQDEVLAEAKANPGMAALAQGQFQQATNGSSVLFIESVDGSDFKDVFLAQIRPKGNARPSVVVADSGHLTQLRDGSQVVTLNQGTRFEGTALLRDFRITDFQDYQAIIGHQAVALDPNDTDQMDMRTLWNTDTDRARAELNWRITLVFTVFMMALMVVPLSVVNPRQGRVLSMLPAMLLYLLFFLIQTSLKSNGGKGKLDPTLWMWTVNLIYLALAIVLNLWDTVPVRRLRASFSRKGAV
binds: [4] | [5] | [6]

No constants are given. Whether binding was seen depends on the method and setting. Binding calls can cover weak binding; strength is not graded here. For part of these data: In cells and extracts the contact can be indirect.
